Where two headings read alike, the source gives them in different places. These are yes or no findings as the source states them, for the method shown. In cells and extracts the contact can be indirect. Here binding means that the protein was enriched with, or labelled near, the bait; the list need not be complete. Tags and fused reporters may be left off the sequences shown.
T1: GST-tagged WT-Pdlim5 (PDZ and LIM domain 5) (mouse) (UniProt Q8CI51)
T1 sequence: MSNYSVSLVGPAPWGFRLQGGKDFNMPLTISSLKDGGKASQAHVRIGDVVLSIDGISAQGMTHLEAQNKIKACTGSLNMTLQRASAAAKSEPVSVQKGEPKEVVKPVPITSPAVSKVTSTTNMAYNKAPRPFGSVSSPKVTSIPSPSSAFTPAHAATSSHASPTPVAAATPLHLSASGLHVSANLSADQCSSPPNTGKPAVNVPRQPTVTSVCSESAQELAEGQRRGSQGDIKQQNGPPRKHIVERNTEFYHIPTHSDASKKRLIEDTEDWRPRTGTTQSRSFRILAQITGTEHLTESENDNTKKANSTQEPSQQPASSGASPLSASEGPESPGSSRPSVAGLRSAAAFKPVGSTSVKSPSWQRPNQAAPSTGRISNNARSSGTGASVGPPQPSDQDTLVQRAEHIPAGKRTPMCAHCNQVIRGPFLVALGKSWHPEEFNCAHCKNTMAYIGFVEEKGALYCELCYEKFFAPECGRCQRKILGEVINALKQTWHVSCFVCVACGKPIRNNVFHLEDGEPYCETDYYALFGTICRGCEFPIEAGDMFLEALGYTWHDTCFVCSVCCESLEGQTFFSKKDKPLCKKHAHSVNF

By UniProt entry, the sequences of proteins in these tests, tags left out.
UniProt Q92608: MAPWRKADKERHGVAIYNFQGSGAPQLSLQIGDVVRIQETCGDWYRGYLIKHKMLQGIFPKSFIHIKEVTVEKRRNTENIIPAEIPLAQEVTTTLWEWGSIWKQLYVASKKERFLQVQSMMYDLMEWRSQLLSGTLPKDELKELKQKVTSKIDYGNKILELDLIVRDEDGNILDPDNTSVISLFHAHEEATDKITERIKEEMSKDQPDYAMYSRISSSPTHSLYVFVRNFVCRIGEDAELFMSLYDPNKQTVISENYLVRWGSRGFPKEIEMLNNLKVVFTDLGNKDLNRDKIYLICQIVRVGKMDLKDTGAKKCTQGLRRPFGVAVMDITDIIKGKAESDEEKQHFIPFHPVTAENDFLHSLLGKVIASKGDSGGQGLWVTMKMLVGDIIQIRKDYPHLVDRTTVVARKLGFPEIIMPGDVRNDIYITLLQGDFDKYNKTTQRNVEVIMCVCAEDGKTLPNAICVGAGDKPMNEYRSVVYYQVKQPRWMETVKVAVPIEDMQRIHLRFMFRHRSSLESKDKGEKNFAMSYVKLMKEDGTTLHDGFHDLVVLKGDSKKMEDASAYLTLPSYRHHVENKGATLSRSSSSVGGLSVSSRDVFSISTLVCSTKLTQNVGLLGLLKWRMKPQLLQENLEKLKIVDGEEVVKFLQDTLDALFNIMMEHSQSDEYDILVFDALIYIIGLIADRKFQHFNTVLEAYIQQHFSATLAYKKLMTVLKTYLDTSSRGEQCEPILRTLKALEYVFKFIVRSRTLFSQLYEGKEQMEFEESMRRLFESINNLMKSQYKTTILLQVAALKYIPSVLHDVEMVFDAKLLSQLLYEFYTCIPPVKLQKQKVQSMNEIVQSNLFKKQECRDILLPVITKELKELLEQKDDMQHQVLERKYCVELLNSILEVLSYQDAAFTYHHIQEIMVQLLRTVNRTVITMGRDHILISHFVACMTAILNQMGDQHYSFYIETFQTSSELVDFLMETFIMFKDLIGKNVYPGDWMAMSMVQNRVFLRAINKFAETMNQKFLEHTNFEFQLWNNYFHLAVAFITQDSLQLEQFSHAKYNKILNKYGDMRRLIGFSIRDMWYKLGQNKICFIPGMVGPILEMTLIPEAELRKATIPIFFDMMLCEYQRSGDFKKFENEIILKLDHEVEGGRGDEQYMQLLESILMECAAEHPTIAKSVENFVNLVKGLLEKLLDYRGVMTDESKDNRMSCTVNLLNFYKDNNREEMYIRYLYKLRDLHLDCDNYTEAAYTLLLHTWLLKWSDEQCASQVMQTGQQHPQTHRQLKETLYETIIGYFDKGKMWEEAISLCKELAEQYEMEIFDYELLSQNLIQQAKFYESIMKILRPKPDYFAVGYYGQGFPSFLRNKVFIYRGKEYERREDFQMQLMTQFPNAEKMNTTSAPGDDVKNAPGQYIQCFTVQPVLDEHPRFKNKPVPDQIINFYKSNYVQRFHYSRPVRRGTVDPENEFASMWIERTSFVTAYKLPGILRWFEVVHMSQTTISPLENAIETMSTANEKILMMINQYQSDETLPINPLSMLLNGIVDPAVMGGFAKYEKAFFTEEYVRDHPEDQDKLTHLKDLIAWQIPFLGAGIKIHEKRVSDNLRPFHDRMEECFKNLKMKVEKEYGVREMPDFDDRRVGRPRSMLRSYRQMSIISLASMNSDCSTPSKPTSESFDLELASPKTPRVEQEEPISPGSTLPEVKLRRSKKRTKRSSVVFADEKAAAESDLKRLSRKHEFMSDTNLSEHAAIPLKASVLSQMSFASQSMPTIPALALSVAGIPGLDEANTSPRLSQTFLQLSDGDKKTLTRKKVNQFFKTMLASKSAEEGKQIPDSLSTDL

T2: GST-tagged S177D-Pdlim5 (mouse) (UniProt Q8CI51)
T2 sequence: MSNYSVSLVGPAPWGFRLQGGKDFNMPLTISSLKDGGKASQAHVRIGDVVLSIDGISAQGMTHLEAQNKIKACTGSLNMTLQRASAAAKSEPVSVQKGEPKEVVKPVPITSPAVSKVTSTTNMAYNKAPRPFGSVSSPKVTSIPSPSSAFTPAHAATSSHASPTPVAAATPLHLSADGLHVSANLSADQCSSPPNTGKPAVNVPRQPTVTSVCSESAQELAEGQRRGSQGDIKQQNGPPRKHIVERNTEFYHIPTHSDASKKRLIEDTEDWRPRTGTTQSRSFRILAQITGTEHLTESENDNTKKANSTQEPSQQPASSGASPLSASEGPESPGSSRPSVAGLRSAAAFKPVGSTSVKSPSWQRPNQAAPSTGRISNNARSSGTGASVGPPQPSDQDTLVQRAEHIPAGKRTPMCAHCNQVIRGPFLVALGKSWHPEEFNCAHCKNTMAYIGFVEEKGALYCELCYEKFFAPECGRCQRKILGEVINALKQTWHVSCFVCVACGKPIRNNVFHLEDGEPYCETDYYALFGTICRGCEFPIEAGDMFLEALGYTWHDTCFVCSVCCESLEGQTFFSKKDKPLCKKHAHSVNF


Experiments:
Test in all cases: affinity purification with mass spectrometry; 20 μg purified GST-Pdlim5 (WT or S177D) immobilised on glutathione-Sepharose beads, incubated at 4 °C for 2 h with lysate of 2 x 10^9 U937 cells (30 mM MOPS pH 7.5, 150 mM NaCl, 0.5% Triton-X100, 1.5 mM MgCl2, 1 mM EGTA, 1 mM DTT); eluted with 500 mM NaCl; shotgun LC-MS; only the target purified
[1] = target: T1, GST-tagged WT-Pdlim5 (PDZ and LIM domain 5) (mouse)
[2] = target: T2, GST-tagged S177D-Pdlim5 (mouse)
[3] = target: T1, GST-tagged WT-Pdlim5 (PDZ and LIM domain 5) (mouse); remark: listed apart in the source

| Molecule | binding [1] | binding [2] | binding [3] |
| --- | --- | --- | --- |
| dedicator of cytokinesis 2 (from UniProt Q92608 1-1830) | binds | binds | – |
| Rho GEF 6 (Arhgef6) (protein, UniProt Q15052 1-776) MNPEEQIVTWLISLGVLESPKKTICDPEEFLKSSLKNGVVLCKLINRLMPGSVEKFCLDPQTEADCINNINDFLKGCATLQVEIFDPDDLYSGVNFSKVLSTLLAVNKATEDQLSERPCGRSSSLSAANTSQTNPQGAVSSTVSGLQRQSKTVEMTENGSHQLIVKARFNFKQTNEDELSVCKGDIIYVTRVEEGGWWEGTLNGRTGWFPSNYVREIKSSERPLSPKAVKGFETAPLTKNYYTVVLQNILDTEKEYAKELQSLLVTYLRPLQSNNNLSTVEVTSLLGNFEEVCTFQQTLCQALEECSKFPENQHKVGGCLLSLMPHFKSMYLAYCANHPSAVNVLTQHSDELEQFMENQGASSPGILILTTNLSKPFMRLEKYVTLLQELERHMEDTHPDHQDILKAIVAFKTLMGQCQDLRKRKQLELQILSEPIQAWEGEDIKNLGNVIFMSQVMVQYGACEEKEERYLMLFSNVLIMLSASPRMSGFIYQGKIPIAGTVVTRLDEIEGNDCTFEITGNTVERIVVHCNNNQDFQEWLEQLNRLIRGPASCSSLSKTSSSSCSAHSSFSSTGQPRGPLEPPQIIKPWSLSCLRPAPPLRPSAALGYKERMSYILKESSKSPKTMKKFLHKRKTERKPSEEEYVIRKSTAALEEDAQILKVIEAYCTSANFQQGHGSSTRKDSIPQVLLPEEEKLIIEETRSNGQTIMEEKSLVDTVYALKDEVRELKQENKRMKQCLEEELKSRRDLEKLVRRLLKQTDECIRGESSSKTSILP | – | – | binds |

Reference: article PMC4317497
